Experimental data: PubChem BioAssay AID1671187 (National Center for Advancing Translational Sciences (NCATS), 2021)
Listed are the inconclusive results; actives and inactives stand elsewhere. The call rests on the fitted dose curve; in most records, active means well fitted inhibition curve with a large enough effect; inconclusive means small, poorly fitted or top-dose-only effect; inactive means flat fitted curve, though single readings scatter. A potency beside an inconclusive call is a rough fit, not a confirmed value.

By UniProt entry, the sequences of proteins in these tests, tags left out. Where a name states a change or a piece, a line headed by the entry shows the natural chain unless it says otherwise.
UniProt Q8TD30: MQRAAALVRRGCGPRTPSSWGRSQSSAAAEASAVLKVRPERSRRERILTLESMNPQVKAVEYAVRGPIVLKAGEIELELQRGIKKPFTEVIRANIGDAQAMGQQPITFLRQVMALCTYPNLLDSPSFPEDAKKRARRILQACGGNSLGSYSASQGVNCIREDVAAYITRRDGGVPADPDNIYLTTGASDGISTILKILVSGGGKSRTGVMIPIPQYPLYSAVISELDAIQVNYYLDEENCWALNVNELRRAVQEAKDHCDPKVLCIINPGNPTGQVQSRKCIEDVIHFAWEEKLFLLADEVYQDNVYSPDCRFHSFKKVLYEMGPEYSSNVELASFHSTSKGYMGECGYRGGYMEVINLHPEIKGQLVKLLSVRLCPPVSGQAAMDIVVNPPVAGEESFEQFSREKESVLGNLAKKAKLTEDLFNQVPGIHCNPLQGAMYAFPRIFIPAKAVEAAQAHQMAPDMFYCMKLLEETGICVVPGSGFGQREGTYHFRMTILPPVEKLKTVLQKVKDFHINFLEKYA

Biological target: Alanine aminotransferase 2 (Homo sapiens) (UniProt Q8TD30)
Assay: Confirmatory qHTS assay for inhibitors of Glutamate pyruvate transaminase 2 (GPT2)
Settings: GPT2 enzyme, coupled Amplex Red pyruvate fluorescence
Protocol: Assay Provider: Zhenghe John Wang Ph.D. Case Western Reserve University, Cleveland OH Glutamate pyruvate transaminase 2 (GPT2) catalyzes the reversible transamination of glutamate and pyruvate to provide a-ketoglutarate and alanine. We have optimized an assay for GPT2 enzymatic activity that couples pyruvate formation to detection of fluorescence using an established pyruvate oxidase/horseradish peroxidase / Amplex Red system. Screening conditions were 250uM a-KG, 2mM L-alanine, and 0.006 ng/uL GPT2 in 4 uL of solution; 2 uL of Amplex reaction mix (outlined below) were added so that final concentrations of Amplex reagents in 6 uL were 0.2mM ThPP, 0.2U/mL PO, 1 U/mL HRP, and 15 uM Amplex.
NOTE: The volume of GPT2 in the system depended on the activity of it. The activity could be different in every batch. Batch testing the GPT2 activity was done prior to the assay. Full plate assay with automation as the following protocol: 1. Dispense 2ul of GPT2 enzyme (0.012 ng/ul) into columns 3-48, 2ul of GPT2 buffer (ddH2O with 110mM KCl, 10mM NaCl, 2mM MgCl2, 20mM HEPEs, 0.01% tween-20, 0.1% BSA, 5mM DTT ) into columns 1-2 as a positive control. 2. Control compound : O-(Carboxymethyl)hydroxylamine hemihydrochloride ( 30mM, 1:3 dilution, 12 points, n=2, in column 3, rows 1-24) and Compound Plate single pin-transferred. 3. Dispense 2ul of substrate (0.5mM alpha-Ketoglutaric acid sodium salt, 4mM L-Alanine)into columns 1-48. Room Temperature incubation for 30 minutes, protected from light. 4. Dispense 2uL of Amplex Red reaction mix prepared as : 0.6mM Thiamine Pyrophosphate, 0.6 U/mL Pyruvate Oxidase, 3 U/mL Horseradish Peroxidase , 45uM Amplex Red . Room Temperature incubation for 30 minutes, protected from light. 5. Read at Tecan: Excitation filter 560(10) nm, Emission filter 590 (10) nm Reagents preparation: 1. Combine a-KG and L-alanine at desired concentrations and incubate for at least 10 minutes at 37C. Stocks of L-alanine and a-KG are diluted in distilled water. However, the stocks were diluted in GPT2 buffer for the assay. 2. Prepare GPT2 enzyme at the desired concentration in GPT2 buffer. […]

SMILES | Potency
Cc1cc2c(N3CCCC3)nc(N3CCCC3)nc2n1C | inconclusive: 1.53 µM [inhibitor, full curve]
Cn1ccc2cc(NCc3nnc(C(=O)N4CCC[C@@H]4CN4CCCC4)n3-c3ccccc3)ccc21 | inconclusive: 4.85 µM [inhibitor, full curve]
COc1ccc(N2CC3(C2)CN(c2ccccc2)C(=O)O3)cc1OC | inconclusive: 3.14 µM [inhibitor, full curve]
